No constants are given. Whether binding was seen depends on the method and setting. Binding seen in cells or lysates may run through a third protein. A yes stands for co-enrichment or nearness to the bait. Other partners may have been found.

Chains of the proteins cited; added tags and fusions are not shown. Residues count along the entry.
UniProt Q9NZQ7, residues 19-290: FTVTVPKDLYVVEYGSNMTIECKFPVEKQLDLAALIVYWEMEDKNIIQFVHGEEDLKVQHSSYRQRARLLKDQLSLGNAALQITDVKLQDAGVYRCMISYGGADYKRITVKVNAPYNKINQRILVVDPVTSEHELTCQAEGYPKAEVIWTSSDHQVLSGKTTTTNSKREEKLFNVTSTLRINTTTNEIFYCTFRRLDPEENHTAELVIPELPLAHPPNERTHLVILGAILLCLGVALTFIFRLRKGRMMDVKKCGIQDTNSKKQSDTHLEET
UniProt P38919: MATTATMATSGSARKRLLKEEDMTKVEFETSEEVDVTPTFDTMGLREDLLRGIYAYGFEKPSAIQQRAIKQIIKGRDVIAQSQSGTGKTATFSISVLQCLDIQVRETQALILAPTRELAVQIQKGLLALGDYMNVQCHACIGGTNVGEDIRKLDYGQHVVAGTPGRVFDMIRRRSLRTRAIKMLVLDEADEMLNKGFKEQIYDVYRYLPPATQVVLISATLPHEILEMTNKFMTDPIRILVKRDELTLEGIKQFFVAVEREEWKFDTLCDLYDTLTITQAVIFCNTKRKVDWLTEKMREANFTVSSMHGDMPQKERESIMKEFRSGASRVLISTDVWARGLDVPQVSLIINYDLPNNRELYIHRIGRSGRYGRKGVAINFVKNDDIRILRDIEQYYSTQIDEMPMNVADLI
UniProt O75367: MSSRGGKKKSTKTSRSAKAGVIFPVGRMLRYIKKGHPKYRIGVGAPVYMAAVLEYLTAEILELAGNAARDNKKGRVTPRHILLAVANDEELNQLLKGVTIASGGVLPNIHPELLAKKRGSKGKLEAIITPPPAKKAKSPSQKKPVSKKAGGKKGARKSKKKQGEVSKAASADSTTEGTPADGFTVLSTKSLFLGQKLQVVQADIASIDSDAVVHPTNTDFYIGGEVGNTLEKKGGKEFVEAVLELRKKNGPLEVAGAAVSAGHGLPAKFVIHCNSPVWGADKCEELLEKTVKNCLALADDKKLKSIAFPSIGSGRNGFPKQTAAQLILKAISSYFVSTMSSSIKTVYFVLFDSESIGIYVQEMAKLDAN

For the assay, the target named is programmed cell death 1 ligand 1 (PD‐L1) (human (endogenous in PCI 52 and FaDu)) (UniProt Q9NZQ7). Kind of assay: affinity purification with mass spectrometry; CoIP of endogenous PD‐L1 with anti‐PD‐L1 (E1L3N) and Protein A MicroBeads from 100 μg protein per nuclear fraction (nuclear soluble, nuclear chromatin‐bound) of FaDu and PCI 52, then LC–MS; proteins captured with the IgG isotype control excluded.

EIF4A3 (from UniProt P38919 1-411): the binding result is “binds”.

In the case of “macroH2A.1 histone (from UniProt O75367 1-369)”, the binding entry was “binds”.

B1: non‐POU domain containing octamer binding (protein, UniProt Q15233 1-471)
chain: MQSNKTFNLEKQNHTPRKHHQHHHQQQHHQQQQQQPPPPPIPANGQQASSQNEGLTIDLKNFRKPGEKTFTQRSRLFVGNLPPDITEEEMRKLFEKYGKAGEVFIHKDKGFGFIRLETRTLAEIAKVELDNMPLRGKQLRVRFACHSASLTVRNLPQYVSNELLEEAFSVFGQVERAVVIVDDRGRPSGKGIVEFSGKPAARKALDRCSEGSFLLTTFPRPVTVEPMDQLDDEEGLPEKLVIKNQQFHKEREQPPRFAQPGSFEYEYAMRWKALIEMEKQQQDQVDRNIKEAREKLEMEMEAARHEHQVMLMRQDLMRRQEELRRMEELHNQEVQKRKQLELRQEEERRRREEEMRRQQEEMMRRQQEGFKGTFPDAREQEIRMGQMAMGGAMGINNRGAMPPAPVPAGTPAPPGPATMMPDGTLGLTPPTTERFGQAATMEGIGAIGGTPPAFNRAAPGAEFAPNKRRRY
On to B1, for which the binding entry is given as “binds”.

B2: cleavage stimulation factor subunit 1 (protein, UniProt Q05048 1-431)
chain: MYRTKVGLKDRQQLYKLIISQLLYDGYISIANGLINEIKPQSVCAPSEQLLHLIKLGMENDDTAVQYAIGRSDTVAPGTGIDLEFDADVQTMSPEASEYETCYVTSHKGPCRVATYSRDGQLIATGSADASIKILDTERMLAKSAMPIEVMMNETAQQNMENHPVIRTLYDHVDEVTCLAFHPTEQILASGSRDYTLKLFDYSKPSAKRAFKYIQEAEMLRSISFHPSGDFILVGTQHPTLRLYDINTFQCFVSCNPQDQHTDAICSVNYNSSANMYVTGSKDGCIKLWDGVSNRCITTFEKAHDGAEVCSAIFSKNSKYILSSGKDSVAKLWEISTGRTLVRYTGAGLSGRQVHRTQAVFNHTEDYVLLPDERTISLCCWDSRTAERRNLLSLGHNNIVRCIVHSPTNPGFMTCSDDFRARFWYRRSTTD
Consider B2, for which the binding entry was “binds”.
